Source: patent US20120315283A1, “METHODS OF PROMOTING TISSUE GROWTH AND TISSUE REGENERATION” (DANA-FARBER CANCER INSTITUTE, INC., priority 2010, published 2012)
Entries after “also recorded” stand apart in the source; their conditions may differ.

Experiments:
B16F10 melanoma = assay: Spontaneous B16F10 metastasis after primary tumor resection; format: in vivo, mouse; conditions: 21 days of treatment post B16F10 resection, 10 mg/kg/day
endothelial cells = assay: Endothelial cell migration; format: cell-based

O=C(NC12CC3CC(CC(C3)C1)C2)N[C@H]1CC[C@H](Oc2ccc(C(=O)O)cc2)CC1 [t-AUCB, trans-4-[4-(3-adamantan-1-yl-ureido)-cyclohexyloxy]-benzonic acid]
spontaneous B16F10 axillary lymph node metastasis (B16F10 melanoma): dramatically stimulated; also recorded: increase spontaneous B16F10 axillary lymph node metastasis | spontaneous B16F10 axillary lymph node metastasis (B16F10 melanoma; listed as tAUCB): spontaneous axillary lymph node metastasis | VEGF-mediated endothelial migration (endothelial cells; VEGF-mediated): stimulate VEGF-mediated endothelial migration | basal endothelial migration (endothelial cells; basal, without VEGF): no significant effects
